# Measured values taken from the supplement of paper PMC3334620.
# In all, about 33,000 sequences were measured (“E-score (-0.5 to 0.5)”: median about -0.0059, highest 2% from about 0.26 on). Some of the results follow.
# Biological target: T1, Cin5 (UniProt P40917)
# T1 sequence: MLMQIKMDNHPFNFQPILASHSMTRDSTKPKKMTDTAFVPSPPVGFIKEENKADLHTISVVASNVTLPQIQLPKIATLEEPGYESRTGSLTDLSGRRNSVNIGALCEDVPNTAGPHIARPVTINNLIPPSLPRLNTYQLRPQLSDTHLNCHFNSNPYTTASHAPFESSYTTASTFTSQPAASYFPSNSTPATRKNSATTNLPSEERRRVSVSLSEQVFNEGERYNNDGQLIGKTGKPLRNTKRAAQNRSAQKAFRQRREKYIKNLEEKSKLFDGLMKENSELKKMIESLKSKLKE
# Experiment: PBM E-score (8-mer binding enrichment) (E-score (-0.5 to 0.5)); higher = stronger / more preferred TF binding
# Conditions: protein concentration: 100 nM; construct: GST-full length
# Summary of the method: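 Each ungapped eight-base word and its reverse complement, pooled, received an E-score from the Universal PBM Analysis Suite. Underlying scans, normalised with masliner, recorded fluorescent anti-GST bound to GST-tagged yeast transcription factors. These were applied at about 100-200 nM to universal all-10-mer Agilent arrays double-stranded by primer extension.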
row,Sequence,PBM E-score
1,CTCCAAAA,-0.122
2,CTTACCTA,0.32
3,GACTCGAC,-0.201
4,CAAGCACC,-0.111
5,AGTTTCTA,-0.185
6,GCCGAGAA,0.0859
7,CTTTCAGC,-0.127
8,CCTCGTTA,-0.0804
9,GTCAAATA,0.162
10,GCGGCTTA,0.253
11,CTTATATA,0.348
12,CGCACTTC,-0.0754
13,AAATTACA,0.248
14,CAACTAGA,-0.0483
15,AAGATATC,0.207
16,GAGTAGGA,0.0169
17,CTATTTGC,-0.0503
18,GTAGCCAC,-0.273
19,GATGATGA,0.176
20,CAACGTCC,-0.148
21,AAGATTTG,0.0695
22,AAGATTGT,-0.00095
23,ATTACTCC,0.115
24,AGGGGAAA,-0.04
25,AACTGCGC,0.0208

row,Sequence,PBM E-score
1,CCGTGACG,-0.013
2,AATTGGCG,0.136
3,CTATGTTA,0.202
4,CTTCAGAC,-0.127
5,CCGTTTAC,0.161
6,CATGTACA,-0.159
7,GATTAGAA,0.0432
8,AGCATGAA,0.0895
9,ATGACCTC,-0.104
10,AATGGTCT,-0.0588
11,CTCGCATC,0.0143
12,ACTCAGCG,0.0884
13,GGGCAAGA,0.0871
14,CACGGCTC,-0.0578
15,GCGTACAA,-0.118
16,ACTATGCG,0.155
17,ATCGAGGG,0.0234
18,ACTACTGG,-0.0628
19,CTGTCAGC,0.148
20,CGCAACCC,0.0469
21,CTAGGGGC,-0.23
22,CTTAAACA,-0.0118
23,GCCAGTAC,-0.174
24,CTAGACTA,-0.0925
25,GACTGGAC,-0.379

row,Sequence,PBM E-score
1,ATGCCGCG,0.0262
2,CTTTAGTC,-0.207
3,GAGGTAGA,-0.0525
4,CGAATGCC,-0.0866
5,CCTCATCG,0.176
6,AATGCACA,0.0643
7,CATCGGAA,0.159
8,AGCTAATA,0.0776
9,AACCCTTG,-0.107
10,ATCAGGCG,0.0165
11,ATAACCGC,0.134
12,CGTTTAGC,-0.0184
13,ATTAGCGG,-0.011
14,AAATTGAG,0.0703
15,ACAGGTCT,-0.185
16,CATAAACA,0.199
17,GTGGAAAC,0.0486
18,GAGTACAC,-0.039
19,CTAGGTTA,0.118
20,AAGTGGTG,-0.0223
21,CAGCCAAA,0.0853
22,CGCTTTCC,0.0415
23,AACCTGCG,-0.0647
24,TAACGGCA,-0.024
25,ACTCATGC,-0.0208

row,Sequence,PBM E-score
1,ACTCTTAA,-0.16
2,ACACTCAC,0.066
3,CCGAGTCG,-0.238
4,ATAGACTA,-0.00533
5,CCCACTAC,0.0221
6,AAGCAAGT,0.116
7,CATCTACA,0.156
8,ATCCAAGC,-0.0731
9,GACTGGCC,-0.128
10,CCACGTGC,-0.0809
11,AAGACTAC,0.0417
12,GCATCAAA,0.018
13,AGACGCAC,-0.134
14,AGATCCTA,-0.0804
15,CCTCGCCA,-0.273
16,GGCGGCTA,-0.098
17,TTCGAGAA,0.0129
18,ACCCACGC,-0.114
19,CACCTTGA,0.00105
20,CCACGTGG,-0.213
21,AACACGGG,0.0354
22,GGGTCATA,-0.137
23,ACAAATCC,0.213
24,CCGTAAGC,0.332
25,GTGGTCGA,-0.213

# Copied from the results shown (2 entries):
row,Sequence,PBM E-score
2,ACACTCAC,0.066
3,CCGAGTCG,-0.238

# (list continues)

row,Sequence,PBM E-score
1,AGGTTCAC,-0.0538
2,CGCGTGAG,0.0663
3,AGCGAGCT,0.161
4,AAACTACT,0.127
5,GACCGGTA,-0.281
6,GAGTTCGC,-0.0925
7,CAATCTAA,-0.0172
8,AGTGTATA,0.0171
9,GCTAGTAA,0.0686
10,ACTCCAGG,-0.113
11,AACGGAGA,0.0467
12,ATATCGCG,0.301
13,GAGGAGCC,-0.304
14,CCTAGCCC,-0.136
15,AAAGATGT,0.1
16,CGTTGATC,0.0352
17,CACAGGCA,-0.0654
18,ACTGTGGC,-0.203
19,ACGCGTGA,0.174
20,CATTCACC,0.15
21,CGTGCGTC,-0.0137
22,CAAGGCTG,-0.104
23,GGCAGTCA,-0.0167
24,CCTAAAAG,-0.301
25,CAGGAAAG,-0.147

row,Sequence,PBM E-score
1,AACGTACA,0.123
2,GGTAACTA,0.155
3,CGGCCGGC,-0.186
4,CGCCTTAG,-0.0138
5,CTCCACTC,-0.232
6,CAGAAACC,0.0186
7,CGTTCGGA,0.057
8,CACAGGGA,-0.183
9,AACGCCCA,0.0379
10,AGCTGTCA,0.0252
11,AACGGCTC,-0.0975
12,CAACGTGC,0.102
13,CTCCGTCC,-0.302
14,AGCACCAT,-0.183
15,ATATAGCG,-0.0366
16,AGGTAAAC,0.183
17,AGCTCTAT,-0.0419
18,CGTGCAAG,-0.121
19,GAATCCAC,0.00882
20,CATATCCG,0.0661
21,GCGGCTCC,-0.325
22,AGCACCCG,-0.171
23,CCGTGGCA,-0.0963
24,CGCTTAGC,-0.0166
25,ACGAATAT,0.193

# Looked up above.
# GCTAGTAA – PBM E-score: 0.0686
# ACTATGCG – PBM E-score: 0.155
# CTGTCAGC – PBM E-score: 0.148

# Later entries

row,Sequence,PBM E-score
1,GACAGCGA,-0.121
2,CTTAATTC,0.0475
3,GGATCACC,-0.103
4,GTACGACA,0.0253
5,GGTTATTA,0.0772
6,ATCACCCA,-0.141
7,GGAATCCC,-0.04
8,ACCTATTG,-0.0597
9,ACGCATTC,-0.0717
10,CACAGATA,-0.0141
11,GGGGCTTA,-0.0994
12,AGGGACAC,0.0562
13,CAGTCTGC,-0.154
14,ACTTTAGA,0.0646
15,AAACACCG,0.0583
16,ACGATAGC,0.0674
17,AGCGACGC,-0.155
18,ACTTCACG,-0.122
19,ATGACCAC,-0.031
20,GATTCAAC,0.0352
21,GTGCGGAA,0.0768
22,GGACCATA,-0.155
